Test results reported in PubChem BioAssay AID1508600 (Functional Genomics Laboratory (NCATS/FGL), 2020).
Out of some 53,000 sequences screened, about 3,700 (7%) were called active.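 The calls were made as follows: active = gene knockdowns whose robust z-score for IL-1 alpha signal is at least 2 or at most -2, so actives lie on both sides; inactive = the rest.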 This is one part of the list.

Assay: Components of the Cytosolic LPS Sensing Pathway: Gene Identification via Genome-wide siRNA Screen;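 also: robust z of the log signal after scaling to non-targeting control siRNA wells of the plate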
Conditions: RAW264.7 macrophages, IL-1a HTRF, actives lie on both sides, screened at 100 nM (by protocol), cells primed 5 h with Pam3CSK4 first
How it was run: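 Supernatant IL-1a by HTRF from RAW264.7 cells primed with Pam3CSK4 (5 hours) and transfected with LipidA (24 hour) after 48h siRNA knockdown at 100 nM; cell viability checked with CellTiter-Glo.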
In the case of GCUCAUAAGUCUAUUACUGTT against Asb14, the z-score is reported as inactive: -0.0222. In the case of GGAACAGCGGCUAACUUAUTT against Asic4, the z-score is reported as inactive: 1.4. For GGAGAAGCUAGAGUUCAUGTT against Fosl2, the z-score was inactive: -0.787. With GCUGAACUAUCCCUUAGUGTT against Rccd1 the z-score was inactive: -0.69. With GGUCAUCGUGUUUGGUUUCTT against Dcaf15 the z-score was inactive: 0.839. With CGAUAAAUCACCUCAAGAUTT against Kcnn4 the z-score was inactive: -1.03. In the case of GGAUGUGGUGGUAUUAGACTT against Phykpl, the z-score is reported as active: 2.5. For UACUUGUAGCCAUGGCUCUTT against Olfr685, the z-score was inactive: 0.334. With UGGUGGUGUUUUUUAACUCTT against Pdp2 the z-score was inactive: 0.161. With GGAUGUAUCUGAACAAUACTT against Mlst8 the z-score was inactive: -0.464. In the case of GGAGAUUCGGAAAAUGUGUTT against Vac14, the z-score is reported as inactive: -1.79. In the case of GGUUCUUUGUGAACUUCCCTT against Cygb, the z-score is reported as inactive: 0.0783. With CGCAAUAAAGAAGAUAAACTT against Slc35f3 the z-score was inactive: -0.417. In the case of GAUCUUUGUCCUCAUUCUCTT against Olfr1206, the z-score is reported as inactive: -1.09. In the case of GCACGAGGAUUCAGAUAUCTT against Gusb, the z-score is reported as inactive: -0.449. For GGAUCACAUACGUACACAATT against Dpp8, the z-score was inactive: 0.301. In the case of GCUAGAUGCUAUGAAGCGATT against Ap3b1, the z-score is reported as inactive: -0.406. In the case of GGGCAACCUGUCACAUUAUTT against Spam1, the z-score is reported as inactive: 1.16. For GCUCUACUGCGCUACCAAGTT against Fgf3, the z-score was inactive: 0.315. In the case of CCACUAUGACUUCAGGUGUTT against Olfr1465, the z-score is reported as inactive: -0.137. For GGAAAAGCUAAUCUUACUATT against Nop16, the z-score was inactive: -0.77. In the case of CGGCUCCUUUCAUAUUACCTT against Akap7, the z-score is reported as inactive: -0.292. For CGCCCAUGUACAGAUUUGUTT against Olfr429, the z-score was active: -2.33. In the case of CGAUCCCAUGUUGCCUAAUTT against Fut11, the z-score is reported as inactive: -0.602. For GGCUUGUUACCACAUGCUGTT against Fermt3, the z-score was inactive: -1.46. In the case of GCCUAUGGGUCAUUUCAAATT against Dock11, the z-score is reported as inactive: -0.968. In the case of “GCAGGGUAUUGUCAAUGGCTT against 0610040J01Rik”, the z-score is reported as inactive: 0.103. With CCUUUACUGUCCAUUCCGATT against Stxbp2 the z-score was inactive: -0.533. In the case of GGUUCUGUUAAUGUACCAUTT against Cd53, the z-score is reported as inactive: 0.833. In the case of GCCGAGCAGUUACUUGAGATT against Kif18b, the z-score is reported as inactive: -1.28. With GGAGCUUCACUAAGUAACATT against Zfp239 the z-score was inactive: -0.594. In the case of GGAAAGAAAAGCCUUAGAATT against Nbeal1, the z-score is reported as inactive: 0.386. With GCGAGUCUAUGUGUUCCCUTT against Cox4i2 the z-score was inactive: 0.187. With GGCCAACUGAUUAAGAAACTT against Chrnb1 the z-score was inactive: 0.264. For GGUAUCAUGGAGGAGAUGGTT against Lhx9, the z-score was inactive: -0.859. For GGAGGCCAAAGGACUGAUCTT against Hectd4, the z-score was inactive: 1.56. In the case of GGCCUUUAUCAGCGGUGAUTT against Srd5a2, the z-score is reported as inactive: -1.87. In the case of GGUGUCUUUGCUCUUAAUUTT against Sike1, the z-score is reported as inactive: 0.277. With CCAUGUCAACGACCAUCAUTT against Glis2 the z-score was inactive: 0.189. With GGAAAUAUAUGUCAUGUCATT against Nars the z-score was active: 2.37. For GCCAAAGUAGCAUUAGUGATT against Dip2b, the z-score was inactive: -1.39. In the case of GGUGAACUUUACCUUCAACTT against Mov10, the z-score is reported as inactive: 0.867. In the case of GGAGGACAGUAGGUGGCAATT against Hexim1, the z-score is reported as inactive: -0.218. With GCGAUUUAUUGCCAAGCCCTT against Cers5 the z-score was inactive: 0.596. In the case of GGUCAAAUAUGGAGAUCUUTT against Atp2b3, the z-score is reported as inactive: 1.39. For GCUGAUGUCUCAACCUAGATT against Zkscan2, the z-score was inactive: -1.72. In the case of GGUGGAGUUUCUGAAACAGTT against Supt16, the z-score is reported as inactive: -0.861. In the case of GGUUUACCAGAAACACUGATT against Fam162a, the z-score is reported as inactive: 1.37. In the case of CCCAAUGGUUGUACCAAUATT against Zp3r, the z-score is reported as inactive: 0.656. In the case of GGGAACUCAAAGAAGAGAGTT against Lysmd2, the z-score is reported as inactive: 0.515. For GUGGAUUGAGGAUGGAAUCTT against Gng13, the z-score was inactive: 1.86. In the case of GGUCACAUGUCUCUUGUGATT against Ankrd33, the z-score is reported as inactive: -0.661. With GCUAUUCUGAUGCGUGGAGTT against Coq2 the z-score was inactive: -1.24. For GCUAGUCCGGUACUUCUUGTT against Bckdk, the z-score was inactive: 0.603. With CGUGACUACACCAUCAAAGTT against Adgrg1 the z-score was inactive: 1.69. In the case of GGAAAGGUUUUCAUCAACATT against Pih1d1, the z-score is reported as inactive: -1.61. With CGCGGAAACUCUCCACUUATT against Psme4 the z-score was inactive: -1.18. For CGGACUCAGUCAUCAUUGCTT against Atf7, the z-score was inactive: -1.46. For GUAAAUCCAAUUCCUCAGCTT against Vax1, the z-score was inactive: 0.152. In the case of GGUGCAGAAAGAGAGAAGATT against Mtpap, the z-score is reported as inactive: 0.019. In the case of GGCUGCACUAGACGAAUGCTT against Rrp1b, the z-score is reported as inactive: 0.362. With GGUCAUCGACUUCUCCAAGTT against Grik5 the z-score was inactive: 0.99. With GGCAUUGUCACUGUGUCUGTT against Sphk2 the z-score was inactive: -1.59. For GCACACUACGGUCCAUCUCTT against Xkr4, the z-score was inactive: -1.19. With CGAAAAAAAGUCCAUAAAGTT against Nifk the z-score was inactive: -0.0901. For GGCUUUUAACACCUUCAUUTT against Clptm1l, the z-score was inactive: 0.495. With GGGAGAAACUAUUUAGUCUTT against Inhbe the z-score was inactive: 0.145. With GGCGAGGAGAAAAGAGUUUTT against Wfdc12 the z-score was inactive: 2. With GGGAUGUCUUGGAACAUGCTT against Pate14 the z-score was inactive: 1.19.
